{
  "source": "patent US20240199759A1",
  "binders": {"B1": {"name": "mouse anti-NKp46 monoclonal antibody 09 (antibody, V domains shown)", "VH": "EVQLQQSGPELVKPGTSVKISCKTSGYTFTEYSMHWVKQSHGKSLEWFGGISPNSGGTSYNQKFKGKATLTVDKSSSTAYMELRSLTSEDSAVYYCARRDFHSSFDYWGQGTTLTVSS", "VL": "DIVMTQSPATLSVTPGDRVSLSCRASQSISDYLHWFQQKSHESPRLLIKYASQSISGIPSRFSGSGSGSDFTLSINSVEPEDVGVYYCQNGHSFPLTFGPGTKLELK"}},
  "target": "T1, NKp46 domain I fused to Ig (D1-Ig) (human), O76036",
  "T1 chain": "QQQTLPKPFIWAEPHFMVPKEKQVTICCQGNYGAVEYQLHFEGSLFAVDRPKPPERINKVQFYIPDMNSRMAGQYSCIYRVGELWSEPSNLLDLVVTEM",
  "experiment": "BIAcore",
  "details": "remark: other sources report otherwise",
  "note": "These are yes or no findings as the source states them, for the method shown. Some results given as binding are weak or reduced against the parent protein; the word gives no strength. Where a sequence is shown, tags or fusion partners need not be part of it.",
  "data": [
    {"binder": "B1", "values": [
      {"measurement": "binding", "value": "binds"}
    ]}
  ]
}
